Among the data in PMC12483278, “The viral BCL2 protein BHRF1 of Epstein–Barr virus promotes AIM2 inflammasome activation to facilitate lytic replication” (PLOS Pathogens, 2025) are binding values, retold here.

Results are given in words; binding and its absence hold for the method and conditions named. Binding seen in cells or lysates may run through a third protein. Binding can be weak; no strength is given. Tags and fused reporters may be left off the sequences shown.

The target of the test is T1, GST-AIM2 full-length (UniProt O14862).
T1 sequence: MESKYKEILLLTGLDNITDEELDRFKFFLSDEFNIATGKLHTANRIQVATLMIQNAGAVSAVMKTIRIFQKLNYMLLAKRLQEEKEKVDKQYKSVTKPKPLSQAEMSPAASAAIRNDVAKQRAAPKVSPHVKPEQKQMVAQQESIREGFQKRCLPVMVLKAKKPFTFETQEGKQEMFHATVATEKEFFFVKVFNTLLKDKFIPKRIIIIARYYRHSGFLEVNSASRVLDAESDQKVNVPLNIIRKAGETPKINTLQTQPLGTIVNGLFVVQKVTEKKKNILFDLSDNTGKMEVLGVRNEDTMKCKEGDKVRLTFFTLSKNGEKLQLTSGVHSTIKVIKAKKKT
Kind of test: co-IP.

On to “GFP-BHRF1 with the N-terminal domain deleted (Epstein–Barr virus) (domain or fragment)”, for which the binding entry was “binds”.
